Measurements published in paper PMC5024086, “Fine-tuning of amino sugar homeostasis by EIIA^Ntr in Salmonella Typhimurium” (Scientific Reports, 2016).
These are yes or no findings as the source states them, for the method shown. Binding seen in cells or lysates may run through a third protein. These calls come from enrichment with a bait or labelling near it, and not all partners need be listed. Where a sequence is shown, tags or fusion partners need not be part of it.

Target: EIIA^Ntr tagged with His6 at its C-terminus (EIIA^Ntr-His6), unphosphorylated form (Salmonella Typhimurium)
Experiment: affinity purification with mass spectrometry; ligand fishing: 1 mg EIIA^Ntr-His6 mixed with S. Typhimurium SL1344 cell extract, Ni-NTA resin 1 h at 4 °C, 20 mM Tris-HCl pH 8.0, 300 mM NaCl; eluted with 250 mM imidazole; band from SDS-PAGE identified by LC-MS/MS; only the target purified

binding: binds
B1: GlmS in solution (SEC-MALS) (enzyme, Salmonella Typhimurium, UniProt Q8ZKX1 1-609, looked up)
chain: MCGIVGAIAQRDVAEILLEGLRRLEYRGYDSAGLAVVDAEGHMTRLRRLGKVQMLAQAAEEHPLHGGTGIAHTRWATHGEPSEANAHPHVSEHIVVVHNGIIENHEPLREALKARGYTFVSETDTEVIAHLVNWELKQGGTLREAVLRAIPQLRGAYGTVIMDTRHPDTLLAARSGSPLVIGLGMGENFIASDQLALLPVTRRFIFLEEGDIAEITRRSVNIFDNTGAEVKRQDIESNLQYDAGDKGIYRHYMQKEIYEQPNAIKNTLTGRISHGQVDLSELGPNADELLSKVEHIQILACGTSYNSGMVSRYWFESLAGIPCDVEIASEFRYRKSAVRRNSLMITLSQSGETADTLAGLRLSKELGYLGSLAICNVPGSSLVRESDLALMTNAGTEIGVASTKAFTTQLTVLLMLVAKLSRLKGLDASIEHDIVHGLQALPSRIEQMLSQDKRIELLAEDFSDKHHALFLGRGDQYPIALEGALKLKEISYIHAEAYAAGELKHGPLALIDADMPVIVVAPNNELLEKLKSNIEEVRARGGQLYVFADQDAGFVSNDNMHIIEMPHVEEVIAPIFYTVPLQLLAYHVALIKGTDVDQPRNLAKSVTVE
notes: D-glucosamine-6-phosphate synthase (GlmS), Salmonella Typhimurium; 128 kDa dimer by SEC-MALS; it may be the same as m7; also called GlmS dimer
